# Library screen at single concentrations

Each number is a percent effect as filed.
The controls that fix the scale are not given in the record; negative values are as filed.
This is an unselected part of the compounds tested.
Two or more numbers in one place are separate tests of the same structure; such repeats can differ widely.

Mtb glucose medium: 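Growth of Mycobacterium tuberculosis over 3 days (7H9 medium with glucose and tyloxapol); the read-out is not stated. Compounds at 50 µM. The record gives no direction; compounds that gave an IC50 in retests scored well above the rest, so higher reads as more growth inhibition. Of about 69,000 compounds tested this way, about 760 (1.1%) reached 50% or more in at least one test.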
Mtb cholesterol medium: 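Whole-cell growth test on Mycobacterium tuberculosis, read after 4 days in a medium based on cholesterol and the lipid DPPC; the read-out is not stated. Tested at 50 µM. Higher reads as more growth inhibition (inferred: compounds with an IC50 in retests scored well above the rest). Size under these conditions: about 69,000 compounds, about 370 of them at 50% or above in at least one test.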

{"smiles": "COCC1c2c(cnn2CC2CC2)CCN1Cc1cccs1.O=C(O)C(F)(F)F.O=C(O)C(F)(F)F", "stereo": "stereo not given", "Mtb glucose medium": -0.06506, "Mtb cholesterol medium": 7.092}
{"smiles": "CCc1ccc(-c2ncc3c(n2)N(C)CCN(CCN(C)C)C3=O)cc1", "Mtb glucose medium": 35.56, "Mtb cholesterol medium": 12.78}
{"smiles": "CCOc1ccc(C2SCC(=O)Nc3c2c(=O)[nH]n3C(CC)CC)cc1", "stereo": "stereo not given", "Mtb glucose medium": 13.34, "Mtb cholesterol medium": -14.44}
{"smiles": "CN(C)c1ncc2c(n1)C1(CCN(Cc3ccccc3)C1)COC2.O=C(O)C(F)(F)F", "stereo": "stereo not given", "Mtb glucose medium": 25.75, "Mtb cholesterol medium": -6.39}
{"smiles": "Cc1ccc(CNCc2nnc3n2CC(C(F)(F)F)CC3)o1", "stereo": "stereo not given", "Mtb glucose medium": -5.715, "Mtb cholesterol medium": -31.38}
{"smiles": "CN(C)S(=O)(=O)NCC(O)c1cc2ccccc2s1", "stereo": "stereo not given", "Mtb glucose medium": 3.89, "Mtb cholesterol medium": 17.2}
{"smiles": "Cc1ccc(NC(=O)c2n[nH]c(-n3cnnc3)n2)cc1", "Mtb glucose medium": -4.636, "Mtb cholesterol medium": 3.143}
{"smiles": "CCC(c1ccccc1)N1CCN(CCO)CC1", "stereo": "stereo not given", "Mtb glucose medium": -4.258, "Mtb cholesterol medium": 6.219}
{"smiles": "COCC(=O)NCc1cc(=O)n2c(n1)CN(Cc1ccsc1)CCC2", "Mtb glucose medium": 20.02, "Mtb cholesterol medium": -9.934}
{"smiles": "CN(Cc1cc(Cl)cc2cccnc12)CC1CCN(CCO)CC1", "Mtb glucose medium": 3.964, "Mtb cholesterol medium": 4.776}
{"smiles": "Cc1ccc(C(=O)N2CCn3c(COCC4CC4)cnc3C2C)nc1.O=C(O)C(F)(F)F", "stereo": "stereo not given", "Mtb glucose medium": -22.17, "Mtb cholesterol medium": -10.84}
{"smiles": "CC(C)CCS(=O)(=O)CC(=O)N1CCCC1c1cnn(C)c1", "stereo": "stereo not given", "Mtb glucose medium": -2.495, "Mtb cholesterol medium": 12.53}
{"smiles": "O=C(CCN1CCCO1)N1CCCC(CO)(CCCc2ccccc2)C1", "stereo": "stereo not given", "Mtb glucose medium": "2.47 & 30.64", "Mtb cholesterol medium": 1.717}
{"smiles": "OCCNC1CCc2cc3c(cc21)OCCO3", "stereo": "stereo not given", "Mtb glucose medium": -8.874, "Mtb cholesterol medium": -4.579}
{"smiles": "CCOC(=O)N1CCN(c2nc(N3CCCC3)c3ccccc3n2)CC1", "Mtb glucose medium": 25.93, "Mtb cholesterol medium": "27.04 & -1.9"}
{"smiles": "CCOC1COC2(CCN(Cc3ccc(F)cc3)CC2)C1.O=C(O)C(F)(F)F", "stereo": "stereo not given", "Mtb glucose medium": -4.56, "Mtb cholesterol medium": -8.809}
{"smiles": "Cc1cccc(OCC(O)CN2CCC(Cn3cccn3)CC2)c1", "stereo": "stereo not given", "Mtb glucose medium": -20.58, "Mtb cholesterol medium": -11.03}
{"smiles": "CCc1noc(C)c1C(=O)N1CCCCC1Cn1cc(C)cn1", "stereo": "stereo not given", "Mtb glucose medium": -37.72, "Mtb cholesterol medium": -51.23}
{"smiles": "Cc1ccc2nc(-c3cnc(N)nc3)c(C)c(C(=O)N(C)C)c2c1", "Mtb glucose medium": 32.23, "Mtb cholesterol medium": 52.5}
{"smiles": "CC(C)(CO)Nc1c(NCc2ccccc2)c(=O)c1=O", "Mtb glucose medium": 8.789, "Mtb cholesterol medium": -14.99}
{"smiles": "CN(C)c1nc(NCCCN2CCc3ccccc32)ncc1F", "Mtb glucose medium": "25.53 & 12.91", "Mtb cholesterol medium": 16.27}
{"smiles": "Cc1ccc(CC2COCCN(Cc3ccccc3)C2)nc1", "stereo": "stereo not given", "Mtb glucose medium": 25.05, "Mtb cholesterol medium": 17.9}
{"smiles": "COc1ccc2c(c1)CCCN2C(=O)CN1CCOC(C)C1", "stereo": "stereo not given", "Mtb glucose medium": 3.447, "Mtb cholesterol medium": -6.795}
{"smiles": "FC(F)(F)c1cc(C2CCNCC2)nc(-c2ccsc2)n1", "Mtb glucose medium": 13.16, "Mtb cholesterol medium": 16.89}
{"smiles": "COCCN1CCC(CNCc2c[nH]nc2C(C)(C)C)CC1", "Mtb glucose medium": 65.19, "Mtb cholesterol medium": 46.05}
{"smiles": "COc1ccc(N2CCCC3(C2)CN(c2ncccn2)CCO3)cc1", "stereo": "stereo not given", "Mtb glucose medium": -23.13, "Mtb cholesterol medium": -23.44}
{"smiles": "CCCc1cnc(C)nc1N1CCC(Cn2cc(CN(C)C)nn2)CC1", "Mtb glucose medium": 5.42, "Mtb cholesterol medium": 22.34}
{"smiles": "COc1ccc(CN2CCN(C(C)=O)CC3(CC(=O)N(C)C3)C2)cc1.O=C(O)C(F)(F)F", "stereo": "stereo not given", "Mtb glucose medium": 10.86, "Mtb cholesterol medium": 10.86}
{"smiles": "O=C(c1ccc2c(c1)[nH]c(=O)n2C1CCCC1)N1CC(O)C1", "Mtb glucose medium": -8.374, "Mtb cholesterol medium": 1.323}
{"smiles": "CCOc1ccc(CNCc2ccc(C(=O)NC)cc2)cc1OCC", "Mtb glucose medium": 14.44, "Mtb cholesterol medium": 18.78}
{"smiles": "Cc1noc(C)c1CN1CCN(Cc2nc(C3CC3)no2)CC1", "Mtb glucose medium": "-2.955 & -34.61", "Mtb cholesterol medium": -31.1}
{"smiles": "CCN(CC(=O)NC)S(=O)(=O)N1CCCCCC1", "Mtb glucose medium": 8.433, "Mtb cholesterol medium": 6.343}
{"smiles": "CC(=O)N(Cc1ncc(C(C)C)o1)C1CCN(CCC#N)C1", "stereo": "stereo not given", "Mtb glucose medium": -14.14, "Mtb cholesterol medium": -10.69}
{"smiles": "[H][C@@]12CS(=O)(=O)C[C@]1([H])N(C(=O)Nc1cccc(C#N)c1)CCN2C(=O)CC", "Mtb glucose medium": -7.86, "Mtb cholesterol medium": 4.183}
{"smiles": "CCCN(Cc1cnn(C)c1)S(=O)(=O)c1cc(C)cc(F)c1", "Mtb glucose medium": -7.23, "Mtb cholesterol medium": -10.38}
{"smiles": "CN(C)CCn1c(=O)oc2ccc(NC(=O)c3cc(Cl)c[nH]3)cc21", "Mtb glucose medium": 25.76, "Mtb cholesterol medium": -8.758}
{"smiles": "Cc1oc(-c2ccoc2)nc1CN1CCC[C@H]1CO", "Mtb glucose medium": -0.3703, "Mtb cholesterol medium": "-5.858 & 2.245"}
{"smiles": "Cc1cccc(N2CCN(C(=O)CCc3c(C)noc3Cl)CC2)c1", "Mtb glucose medium": 28.51, "Mtb cholesterol medium": -5.064}
{"smiles": "COC(=O)[C@@H]1C[C@@H](O)CN1Cc1ccn(-c2ccc(F)cc2)n1", "Mtb glucose medium": "3.292 & 10.74", "Mtb cholesterol medium": 6.514}
{"smiles": "O=C(COc1cccc2c1CCC2=O)NCCc1cccs1", "Mtb glucose medium": -8.019, "Mtb cholesterol medium": "6.901 & -7.777"}
{"smiles": "NC(=O)Cn1ccc(O)c(Cc2ccc(Cl)cc2Cl)c1=O", "Mtb glucose medium": "0.8175 & 20.61", "Mtb cholesterol medium": -20.99}
{"smiles": "Cc1cc(C2CCCN(C(=O)c3cnccn3)C2)ccn1", "stereo": "stereo not given", "Mtb glucose medium": 8.808, "Mtb cholesterol medium": -17.31}
{"smiles": "O=C(CCN1CCc2[nH]nc(C(F)(F)F)c2C1)Nc1ccccc1", "Mtb glucose medium": -2.627, "Mtb cholesterol medium": -2.99}
{"smiles": "CCN1CCn2c(C)cnc2C12CCN(C(=O)c1ccc(Cl)cc1)CC2.O=C(O)C(F)(F)F", "Mtb glucose medium": -7.489, "Mtb cholesterol medium": -9.561}
{"smiles": "Cc1nccn1[C@@H]1CC[C@@H](N(C)S(=O)(=O)c2cccc(F)c2)[C@H]1O", "Mtb glucose medium": -16.21, "Mtb cholesterol medium": "3.052 & -1.037"}
{"smiles": "CC(C)N(C)Cc1cnc2n1CCN(CCc1ccccc1)C2.O=C(O)C(F)(F)F.O=C(O)C(F)(F)F", "Mtb glucose medium": 0.04129, "Mtb cholesterol medium": "5.583 & -12.5"}
{"smiles": "COc1ccc2c(ccn2CC(=O)Nc2n[nH]c(C(C)C)n2)c1", "Mtb glucose medium": 25.88, "Mtb cholesterol medium": 5.325}
{"smiles": "CCC(C)N(Cc1cccnc1)Cc1cc2c(cc1OC)OCO2", "stereo": "stereo not given", "Mtb glucose medium": 28.2, "Mtb cholesterol medium": -3.671}

The last 6 entries again:

For O=C(CCN1CCc2[nH]nc(C(F)(F)F)c2C1)Nc1ccccc1 the result was Mtb glucose medium: -2.627%; Mtb cholesterol medium: -2.99%.
For CCN1CCn2c(C)cnc2C12CCN(C(=O)c1ccc(Cl)cc1)CC2.O=C(O)C(F)(F)F the result was Mtb glucose medium: -7.489%; Mtb cholesterol medium: -9.561%.
For Cc1nccn1[C@@H]1CC[C@@H](N(C)S(=O)(=O)c2cccc(F)c2)[C@H]1O the result was Mtb glucose medium: -16.21%; Mtb cholesterol medium: 3.052% & -1.037%.
For CC(C)N(C)Cc1cnc2n1CCN(CCc1ccccc1)C2.O=C(O)C(F)(F)F.O=C(O)C(F)(F)F the result was Mtb glucose medium: 0.04129%; Mtb cholesterol medium: 5.583% & -12.5%.
For COc1ccc2c(ccn2CC(=O)Nc2n[nH]c(C(C)C)n2)c1 the result was Mtb glucose medium: 25.88%; Mtb cholesterol medium: 5.325%.
For CCC(C)N(Cc1cccnc1)Cc1cc2c(cc1OC)OCO2 (stereo not given) the result was Mtb glucose medium: 28.2%; Mtb cholesterol medium: -3.671%.

Data taken from ChEMBL document CHEMBL3988442, “University of Dundee, Small-Polar-MMV Screening Library” (2021).